Results from patent US20260001914A1, “MACROCYCLIC PEPTIDES TARGETING KRAS” (Merck Sharp & Dohme LLC, priority 2022, published 2026).
Not every detail of the peptide structures is certain; ends, links or a residue may be inferred. For at least one compound, name, drawing or mass did not settle the structure. *1 amine or outer side, *2 acyl side, *3 side chain or, on linkers, in order; H or OH if unused. Where a SMILES comes first, the peptide text is derived from it. Bridges are numbered along the chain shown (N, C = ends). [ ]: non-standard residue; d: D form. cBu(1-CO,cis-3-CH2NH) = O=C([C@H]1C[C@@H](CN[*:1])C1)[*:2]; NMeNva(5-imidazol-1-yl) = CN[C@@H](CCCn1ccnc1)C(=O)O; Phe(4-guanidino) = N=C(N)Nc1ccc(C[C@H](N)C(=O)O)cc1; X59 = O=C([C@H](Cc1ccc(CN2CCCC2)cc1)N[*:1])[*:2]; Nva(5-morpholino) = N[C@@H](CCCN1CCOCC1)C(=O)O; NMe3Pal(6-Me) = CN[C@@H](Cc1ccc(C)nc1)C(=O)O; Ala(thiazol-5-yl) = N[C@@H](Cc1cncs1)C(=O)O; X25 = O=C([C@H](Cc1ccc(F)nc1)N[*:1])[*:2]; X54 = O=C(C[C@H]1C[C@H](N[*:1])C1)[*:2]; 1Nal = N[C@@H](Cc1cccc2ccccc12)C(=O)O; X21 = O=C([C@@H]1C[C@H]1CN[*:1])[*:2]; Phe(2-F) = N[C@@H](Cc1ccccc1F)C(=O)O; NMe3Pal = CN[C@@H](Cc1cccnc1)C(=O)O; NMeOrn(Me) = CNCCC[C@H](NC)C(=O)O; NMeF = CN[C@@H](Cc1ccccc1)C(=O)O; 3Pal = N[C@@H](Cc1cccnc1)C(=O)O; 4Pal = N[C@@H](Cc1ccncc1)C(=O)O; d(αMeC) = C[C@@](N)(CS)C(=O)O; Cba = N[C@@H](CC1CCC1)C(=O)O; Nle = CCCC[C@H](N)C(=O)O

Chains of the proteins cited; added tags and fusions are not shown. Residues count along the entry.
UniProt P01116, 1-188 isoform P01116-2 G12D: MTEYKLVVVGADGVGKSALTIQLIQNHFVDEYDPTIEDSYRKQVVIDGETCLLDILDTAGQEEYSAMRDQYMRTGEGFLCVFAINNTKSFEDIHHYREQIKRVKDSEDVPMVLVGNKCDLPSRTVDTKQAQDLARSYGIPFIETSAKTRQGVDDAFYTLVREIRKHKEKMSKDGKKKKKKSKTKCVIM

biological target: KRAS-G12D protein (Homo sapiens, UniProt P01116, G12D); assay: SOS-mediated nucleotide exchange assay (BODIPY-GDP / Tb-streptavidin TR-FRET); assay type: biochemical

Going from `CCCC[C@@H]1NC(=O)[C@H](Cc2ccc(NC(=N)N)cc2)NC(=O)[C@H](CCCNC(=N)N)NC(=O)[C@H](Cc2ccccc2)NC(=O)C[C@H]2C[C@@H](C2)NC(=O)[C@H](Cc2ccccc2)N(C)C(=O)[C@H](CCCC)NC(=O)[C@H](Cc2ccc(OC)cc2)NC1=O` [compound 91, cyclo(F-R-Phe4Gn-Nle-TyrOMe-Nle-NMeF-cBuAc)] (cyclo(FR[Phe(4-guanidino)][Nle]Y(Me)[Nle][NMeF][X54])) to `CCCC[C@@H]1NC(=O)[C@H](Cc2ccc(CN3CCCC3)cc2)NC(=O)[C@H](CCCNC(=N)N)NC(=O)[C@H](Cc2ccccc2)NC(=O)[C@H]2C[C@@H](CNC(=O)[C@H](Cc3ccccc3)N(C)C(=O)[C@H](CCCC)NC(=O)[C@H](Cc3ccc(OC)cc3)NC1=O)C2` [compound 210, cyclo(F-R-Phe4cPyrr-Nle-TyrOMe-Nle-NMeF-c3amCb1c)] (cyclo(FR[X59][Nle]Y(Me)[Nle][NMeF][cBu(1-CO,cis-3-CH2NH)])), the EC50 falls from 419 nM to 35.3 nM (12-fold). The second is the more potent here.

First: CCCC[C@@H]1NC(=O)[C@H](Cc2cccnc2)NC(=O)[C@H](CCCN2CCOCC2)NC(=O)[C@H](Cc2ccccc2)NC(=O)[C@H]2C[C@@H](CNC(=O)[C@H](Cc3ccccc3)N(C)C(=O)[C@H](CCCC)NC(=O)[C@H](Cc3ccc(OC)cc3)NC1=O)C2 [compound 270, cyclo(F-NvaMph-3Pal-Nle-TyrOMe-Nle-NMeF-c3amCblc)] (cyclo(F[Nva(5-morpholino)][3Pal][Nle]Y(Me)[Nle][NMeF][cBu(1-CO,cis-3-CH2NH)]))
Second: CCCC[C@@H]1NC(=O)[C@H](Cc2cncs2)NC(=O)[C@H](CCCNC(=N)N)NC(=O)[C@H](Cc2ccccc2)NC(=O)[C@H]2C[C@@H](CNC(=O)[C@H](Cc3ccccc3)N(C)C(=O)[C@H](CCCC)NC(=O)[C@H](Cc3ccc(OC)cc3)NC1=O)C2 [compound 354, cyclo(F-R-TZAla-Nle-TyrOMe-Nle-NMeF-c3amCblc)] (cyclo(FR[Ala(thiazol-5-yl)][Nle]Y(Me)[Nle][NMeF][cBu(1-CO,cis-3-CH2NH)]))
The EC50 of the first is 19-fold higher: 3670 nM for the first, 192 nM for the second.

Going from `CCCC[C@@H]1NC(=O)[C@H](Cc2ccccc2F)NC(=O)[C@H](CC2CCC2)NC(=O)[C@H](Cc2ccc(F)nc2)NC(=O)[C@H](CCCNC(=N)N)NC(=O)[C@H](Cc2ccccc2)NC(=O)CSC[C@](C)(C(N)=O)NC(=O)[C@H](Cc2cccnc2)N(C)C1=O` [compound 32, cyclo(F-R-4F3Pal-cBuA-Phe2F-Nle-NMe3Pal-daMeCl-ClAc)] ({CH2CO}-FR[X25][Cba][Phe(2-F)][Nle][NMe3Pal][d(αMeC)]-NH2; thioether N-8) to `CCCC[C@@H]1NC(=O)[C@H](Cc2ccc(OC)cc2)NC(=O)[C@H](CC2CCC2)NC(=O)[C@H](Cc2ccncc2)NC(=O)[C@H](CCCNC(=N)N)NC(=O)[C@H](Cc2cccc3ccccc23)NC(=O)CSC[C@H](C(=O)O)NC(=O)[C@H](Cc2cccnc2)N(C)C1=O` [compound 327, cyclo(INal-R-4Pal-cBuA-TyrOMe-Nle-NMe3Pal-dC-ClAc)] ({CH2CO}-[1Nal]R[4Pal][Cba]Y(Me)[Nle][NMe3Pal][dC]-OH; thioether N-8), the EC50 rises from 1.26 nM to 141 nM (110-fold).

Going from `CCCC[C@@H]1NC(=O)[C@H](Cc2cccnc2)NC(=O)[C@H](CCCNC)N(C)C(=O)[C@H](Cc2ccccc2)NC(=O)[C@H]2C[C@@H](CNC(=O)[C@H](Cc3ccc(C)nc3)N(C)C(=O)[C@H](CCCC)NC(=O)[C@H](Cc3ccc(OC)cc3)NC1=O)C2` [compound 357, cyclo(F-NMeOrMe-3Pal-Nle-TyrOMe-Nle-NMe3Pal4Me-c3amCblc)] (cyclo(F[NMeOrn(Me)][3Pal][Nle]Y(Me)[Nle][NMe3Pal(6-Me)][cBu(1-CO,cis-3-CH2NH)])) to `CCCC[C@@H]1NC(=O)[C@H](Cc2cccnc2)NC(=O)[C@H](CCCn2ccnc2)N(C)C(=O)[C@H](Cc2ccccc2)NC(=O)[C@H]2C[C@@H](CNC(=O)[C@H](Cc3cccnc3)N(C)C(=O)[C@H](CCCC)NC(=O)[C@H](Cc3ccccc3F)NC1=O)C2` [compound 268, cyclo(F-NMeNvalmid-3Pal-Nle-Phe2F-Nle-NMe3Pal-c3amCblc)] (cyclo(F[NMeNva(5-imidazol-1-yl)][3Pal][Nle][Phe(2-F)][Nle][NMe3Pal][cBu(1-CO,cis-3-CH2NH)])), the EC50 falls from 7170 nM to 178 nM (40-fold). The second is the more potent here.

With `CCCC[C@@H]1NC(=O)[C@H](Cc2ccc(OC)cc2)NC(=O)[C@H](CC2CCC2)NC(=O)[C@H](Cc2cccnc2)NC(=O)[C@H](CCCNC(=N)N)NC(=O)[C@H](Cc2ccccc2)NC(=O)[C@@H]2C[C@H]2CNC(=O)[C@H](Cc2ccccc2)N(C)C1=O` [compound 101, cyclo(F-R-3Pal-cBuA-TyrOMe-Nle-NMeF-tamcPr)] (cyclo([3Pal][Cba]Y(Me)[Nle][NMeF][X21]FR)) the EC50 was 228 nM.
